According to paper PMC11784016:
No constants are given. Whether binding was seen depends on the method and setting. Binding seen in cells or lysates may run through a third protein. Some binding calls cover weakened binding; strength is not graded here.

Chains of the proteins cited; added tags and fusions are not shown. Lines headed by an entry give the natural chain unless they say otherwise; changes in a name come on top.
UniProt Q8IUX4: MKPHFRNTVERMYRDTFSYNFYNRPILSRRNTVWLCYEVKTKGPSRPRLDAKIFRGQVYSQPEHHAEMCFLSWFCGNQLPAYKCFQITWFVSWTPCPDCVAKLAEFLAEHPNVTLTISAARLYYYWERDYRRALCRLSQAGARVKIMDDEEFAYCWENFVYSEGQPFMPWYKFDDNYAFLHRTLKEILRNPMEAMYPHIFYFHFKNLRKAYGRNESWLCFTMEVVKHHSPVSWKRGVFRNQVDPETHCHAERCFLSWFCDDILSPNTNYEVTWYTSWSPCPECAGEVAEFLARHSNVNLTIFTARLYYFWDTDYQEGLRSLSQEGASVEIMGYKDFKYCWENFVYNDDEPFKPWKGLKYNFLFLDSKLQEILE
UniProt Q9HC16: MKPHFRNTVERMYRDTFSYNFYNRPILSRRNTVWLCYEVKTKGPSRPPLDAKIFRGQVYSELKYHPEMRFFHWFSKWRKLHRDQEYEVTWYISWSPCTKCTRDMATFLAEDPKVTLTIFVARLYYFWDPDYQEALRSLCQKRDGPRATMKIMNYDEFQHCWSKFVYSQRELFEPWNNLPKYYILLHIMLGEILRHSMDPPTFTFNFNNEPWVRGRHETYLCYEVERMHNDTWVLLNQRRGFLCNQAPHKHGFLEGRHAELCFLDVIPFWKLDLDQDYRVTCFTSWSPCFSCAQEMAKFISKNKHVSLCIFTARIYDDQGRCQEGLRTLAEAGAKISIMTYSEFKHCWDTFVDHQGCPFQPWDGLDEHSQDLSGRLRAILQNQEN

Assays:
[1] = biological target: APOBEC3F-HA (pcDNA3.1 A3F-HA) (human) (UniProt Q8IUX4); test: co-IP; 293T cells co-transfected; 400 ug of cell lysate on anti-HA magnetic beads with RNaseA (50 ug/mL), 2 h at 4 C; co-IP buffer 50 mM Tris-Cl pH 7.4, 1% Nonidet-P40, 10% glycerol, 150 mM NaCl; immunoblot with anti-HA and anti-V5 or anti-Flag; band intensities normalised to the immunoprecipitated protein, full-length protein set to 100%
[2] = biological target: APOBEC3G with C-terminal triple HA tag (pcDNA3.1-APOBEC3G-HA) (human) (UniProt Q9HC16); test: as above

| Substance | binding [1] | binding [2] |
| --- | --- | --- |
| APOBEC3G, Flag-tagged (pcDNA3.1 A3G-Flag) (from UniProt Q9HC16 1-384) (enzyme) | binds | – |
| APOBEC3F-V5 (pVIVO2 A3F-V5) (from UniProt Q8IUX4 1-373) (enzyme) | – | binds |
